Measurements as given in publication PMC4794898.
No constants are given. Whether binding was seen depends on the method and setting. In cells and extracts the contact can be indirect. Here binding means that the protein was enriched with, or labelled near, the bait; the list need not be complete. For some of these results: No binding means not detected with the bait.

Protein sequences, listed by entry. Tags and fused reporters are not part of them. Residues count along the entry.
UniProt P02769, residues 25-607: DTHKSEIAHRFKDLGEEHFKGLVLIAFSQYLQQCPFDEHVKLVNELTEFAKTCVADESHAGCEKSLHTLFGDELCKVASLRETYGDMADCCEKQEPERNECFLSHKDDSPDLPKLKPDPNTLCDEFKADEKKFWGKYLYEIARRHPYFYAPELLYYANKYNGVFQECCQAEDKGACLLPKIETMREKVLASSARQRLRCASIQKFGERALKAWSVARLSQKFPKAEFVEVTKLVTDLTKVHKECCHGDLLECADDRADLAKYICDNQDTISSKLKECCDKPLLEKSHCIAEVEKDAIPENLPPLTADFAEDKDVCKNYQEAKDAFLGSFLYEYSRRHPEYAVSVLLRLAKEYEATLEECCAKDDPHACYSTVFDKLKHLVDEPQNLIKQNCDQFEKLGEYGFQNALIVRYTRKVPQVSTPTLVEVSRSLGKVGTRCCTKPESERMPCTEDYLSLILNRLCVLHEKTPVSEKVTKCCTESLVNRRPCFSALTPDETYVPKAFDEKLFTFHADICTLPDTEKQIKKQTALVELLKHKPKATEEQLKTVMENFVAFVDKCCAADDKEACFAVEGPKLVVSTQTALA
UniProt Q8ILV1: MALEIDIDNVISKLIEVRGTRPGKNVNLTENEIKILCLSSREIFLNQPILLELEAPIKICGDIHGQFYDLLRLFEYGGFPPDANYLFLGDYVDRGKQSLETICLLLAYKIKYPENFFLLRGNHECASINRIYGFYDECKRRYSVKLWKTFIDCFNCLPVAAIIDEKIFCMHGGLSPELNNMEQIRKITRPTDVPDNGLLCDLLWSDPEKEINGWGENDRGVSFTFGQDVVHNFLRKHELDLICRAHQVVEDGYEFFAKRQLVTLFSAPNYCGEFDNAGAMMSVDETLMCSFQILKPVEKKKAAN

B1: phosphoethanolamine N-methyltransferase (PMT) (protein, UniProt Q8IDQ9 1-266)
chain: MTLIENLNSDKTFLENNQYTDEGVKVYEFIFGENYISSGGLEATKKILSDIELNENSKVLDIGSGLGGGCMYINEKYGAHTHGIDICSNIVNMANERVSGNNKIIFEANDILTKEFPENNFDLIYSRDAILHLSLENKNKLFQKCYKWLKPTGTLLITDYCATEKENWDDEFKEYVKQRKYTLITVEEYADILTACNFKNVVSKDLSDYWNQLLEVEHKYLHENKEEFLKLFSEKKFISLDDGWSRKIKDSKRKMQRWGYFKATKN
B2: ornithine aminotransferase (OAT) (protein, UniProt Q6LFH8 1-414)
chain: MDFVKELKSSQDYMNNELTYGAHNYDPIPVVLKRGKGVFVYDIEDRRYYDFLSAYSSVNQGHCHPDILNAMINQAKKLTICSRAFFSDSLGVCERYLTNLFGYDKVLMMNTGAEASETAYKLCRKWGYEVKKIPENSAKIIVCNNNFSGRTLGCVSASTDKKCKNNFGPFVPNFLKVPYDDLEALEKELQDPNVCAFIVEPVQGEAGVIVPSDSYFPGVASLCKKYNVLFVADEVQTGLGRTGKLLCTHHYGVKPDVILLGKALSGGHYPISAILANDDVMLVLKPGEHGSTYGGNPLAAAICVEALKVLINEKLCENADKLGAPFLQNLKEQLKDSKVVREVRGKGLLCAIEFKNDLVNVWDICLKFKENGLITRSVHDKTVRLTPPLCITKEQLDECTEIIVKTVKFFDDNL

Columns and labels:
[1] = target: BSA (bovine (from the name BSA)) (UniProt P02769); test: affinity purification with mass spectrometry; PfPP1 (or BSA as control) covalently coupled to Sepharose beads; precleared total soluble extract of blood stage parasites, overnight at 4 °C; 5 washes with 50 mM Tris, 0.3 M NaCl; elution with 3 M NaSCN; SDS-PAGE, stained bands cut for MS/MS; only the target purified
[2] = target: P. falciparum protein phosphatase type-1 (PfPP1) recombinant protein, coupled to Sepharose (Plasmodium falciparum) (UniProt Q8ILV1); test: as above

Binder	binding [1]	binding [2]
B1	no binding	binds
B2	no binding	binds
